Library screen at single concentrations

The values are deposited in ChEMBL (CHEMBL3988442, “University of Dundee, Small-Polar-MMV Screening Library” (2021)).

Results are given as percent effect. How 0% and 100% were set is not recorded. Most values in the screen are low, and negative values occur. Compounds were drawn at random from those tested, without regard to their results.

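Whole-parasite assay of Trypanosoma brucei over 72 hours; the read-out is not stated. Compounds at 30 µM. The record gives no direction; compounds that gave an IC50 in retests scored well above the rest, so higher reads as stronger inhibition. Values scatter widely below zero; nearly all retest evidence comes from the higher of the two concentrations used. About 64,000 compounds were tested under these conditions; 1.5% (about 940) showed 50% or more at least once.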

structure: c1ccc(OC[C@H]2CCC[C@]23CN(Cc2nccs2)CCO3)nc1
percent effect: -5.48

structure: Oc1ccc(CCC2CCCCN2Cc2noc(C3CC3)n2)cc1 (configuration not stated)
percent effect: 6.155

structure: CN1CC(c2ccccc2)CC12CCN(C(=O)c1c(Cl)cnn1C)CC2 (configuration not stated)
percent effect: 35.31

structure: Cc1cc2n(n1)CC(CNC1CCN(C(=O)c3ccco3)CC1)CN2 (configuration not stated)
percent effect: -16.82

structure: COCCNC(=O)NC(=O)CNc1c(F)cccc1N1CCCC1
percent effect: -34.88

structure: COCC1CN(C(=O)c2cnc(C)cn2)Cc2ncnn2C1 (configuration not stated)
percent effect: -35.82

structure: CCn1ncc(Cn2cc(Cl)c(N)n2)c1C
percent effect: -12.45

structure: CO[C@H]1COCCN(C(=O)c2ccno2)C1
percent effect: -6.409

structure: O=C(O)C1CCN(c2nc3c(-c4ccccc4F)csc3c(=O)[nH]2)CC1
percent effect: 0.6466

structure: CN(C)CCCN(Cc1ccco1)Cc1ccnn1C1CCCCO1.O=C(O)CC(O)(CC(=O)O)C(=O)O (configuration not stated)
percent effect: -21.72

structure: Cc1c(Br)cccc1C(=O)NCCC1CCCNC1.Cl (configuration not stated)
percent effect: -50.27

structure: CCc1nc(CN2CCCN(CC(=O)N3CCOCC3)CC2)no1
percent effect: -95.42

structure: COc1cc(CN2CCC(NC(=O)c3cccn3C)C2)cc(OC)c1 (configuration not stated)
percent effect: 19.33

structure: O=C(NCc1ccc(F)cc1)N1CCC(C2OCCO2)CC1
percent effect: 38.1

structure: CCn1c(N)nc2cc(C(=O)NCc3ccccc3Cl)cnc21
percent effect: -73.77

structure: Cn1ncc2c(=O)[nH]c(CN3CCCC3Cc3ccc(F)cc3)nc21 (configuration not stated)
percent effect: 1.825

structure: Cc1[nH]c2ccccc2c1-c1ccnc(NC[C@H](O)CO)n1
percent effect: -28.89

structure: COc1c(C)cnc(CN(C)C(=O)c2cccnc2N(C)C)c1C
percent effect: -6.016

structure: N#CCCNC(=O)c1ccn(-c2ccc3ccccn23)n1
percent effect: 28.5

structure: CCN1CCC(N2CCC(c3nc(C)cc(C)n3)C2)CC1 (configuration not stated)
percent effect: -9.767

structure: O=C(O)C(F)(F)F.O=C(c1cnoc1)N1CCC[C@]2(C[C@@H](Oc3ccccn3)CO2)C1
percent effect: -14.73

structure: O=C(NCCNC1CCCCC1)c1cccs1
percent effect: -11.34

structure: CSCC(=O)N1CCc2c(cnc(C)c2-c2noc(-c3cc[nH]n3)n2)C1
percent effect: 19.58

structure: Cc1ccnc(NC(=O)C2CCN(CCCc3cn[nH]c3)CC2)c1
percent effect: -19.03

structure: O=C(O)C(F)(F)F.c1coc(CN2CCC3(CC2)COC(COCC2CC2)C3)c1 (configuration not stated)
percent effect: -16.4

structure: Cc1cnn(CC2CCCN2Cc2ncc(-c3ccc(F)cc3)o2)c1 (configuration not stated)
percent effect: -10.07

structure: CCOc1cccc(COC(=O)c2cc(Cl)ccn2)n1
percent effect: -20.25

structure: O=C(O)C(F)(F)F.[H][C@@]12CCCO[C@]1([H])[C@H](Oc1ccccn1)CN2S(C)(=O)=O
percent effect: -57.37

structure: Cc1cnn(CC2CCCN2Cc2coc(-c3cccs3)n2)c1 (configuration not stated)
percent effect: -44.91

structure: CC(CN(C)C(=O)c1cn(C)nc1-c1ccc(F)cc1F)C(=O)O (configuration not stated)
percent effect: -28.08

structure: CCN(CCN(C)C)c1nc(CCN)nc2sc(C)c(C)c12
percent effect: -19.52

structure: O=C(O)[C@@H]1CN(C(=O)CSCC2CC2)C[C@H]1c1ccccn1
percent effect: -24.02

structure: O=C(CCN1C(=O)CCC1=O)Nc1ccc(Oc2ccc(Cl)cc2)nc1
percent effect: -26.64

structure: O=C(O)C(F)(F)F.O=C1Nc2ccccc2C12CCN(c1nccs1)CC2
percent effect: -2.823

structure: CC(=O)N1CCCC(c2cnc(-c3c(C)nn(C)c3C)cn2)C1 (configuration not stated)
percent effect: 7.266

structure: CC(C)c1nnc(CNc2ccc(SC(F)(F)F)cc2)o1
percent effect: -25.52

structure: N#Cc1cccc(NC2CC(=O)N(Cc3ccccc3Cl)C2)n1 (configuration not stated)
percent effect: -60.6

structure: OCCn1cc(CN2CCN(CCOc3ccccc3)CC2)cn1
percent effect: 1.846

structure: Cc1cc(NC(=O)C(C)N2CCN(c3nccs3)CC2)on1 (configuration not stated)
percent effect: 14.59

structure: CN(Cc1cnc(N)nc1)CC1CCCN(CCc2ccc(Cl)cc2)C1 (configuration not stated)
percent effect: -6.233

structure: COc1cc(C)cc(OC)c1C(C(=O)O)N(C)Cc1c(C)nn(C)c1C (configuration not stated)
percent effect: -17.53

structure: CC(=O)N1CCC(NC2(Cc3cc(CC(C)C)on3)COC2)CC1
percent effect: -8.992

structure: COCCOCC1CCN(C(=O)c2ccc3[nH]cnc3c2)C1 (configuration not stated)
percent effect: -21.18

structure: O=S(=O)(CC1CCOCC1)NCc1ncc(-c2ccccc2)o1
percent effect: -43.73

structure: CCc1nc(NCCCn2cccn2)c2c(n1)c(C)nn2C
percent effect: 32.14

structure: Cc1cc(C(=O)CN(Cc2cccnc2)CC2CCCO2)c(C)[nH]1 (configuration not stated)
percent effect: -18.27

structure: Fc1ccc(N2CCCN(c3ccc(Cn4ccnc4)cn3)CC2)cc1
percent effect: -16.3

structure: COC(=O)c1ccc(N(C(=O)c2cscn2)C(C)C)c(C)c1
percent effect: -56.01

structure: O=C(NCCn1ccnc1)N1CCN(c2nccs2)CC1
percent effect: -8.732

structure: CN(C)S(=O)(=O)N1CC[C@]2(C[C@H](Oc3ncccc3F)CO2)C1.O=C(O)C(F)(F)F
percent effect: 10.4

structure: Cc1cccc(NC(=O)c2nn(C3CCS(=O)(=O)C3)c3c2CCCC3)n1 (configuration not stated)
percent effect: -31.78

structure: NC(=O)Nc1cc(Br)cnc1OCC(F)(F)F
percent effect: -9.047

structure: [H][C@]12CC[C@]([H])(CN(Cc3c(C)noc3C)C1)N(Cc1cc(F)cc(F)c1)C2
percent effect: -1.389